The record followed here is doi:10.1101/2021.05.07.442906.

Sequences of proteins named here, by UniProt entry; tags and fusion partners are left off.
UniProt Q5VSL9: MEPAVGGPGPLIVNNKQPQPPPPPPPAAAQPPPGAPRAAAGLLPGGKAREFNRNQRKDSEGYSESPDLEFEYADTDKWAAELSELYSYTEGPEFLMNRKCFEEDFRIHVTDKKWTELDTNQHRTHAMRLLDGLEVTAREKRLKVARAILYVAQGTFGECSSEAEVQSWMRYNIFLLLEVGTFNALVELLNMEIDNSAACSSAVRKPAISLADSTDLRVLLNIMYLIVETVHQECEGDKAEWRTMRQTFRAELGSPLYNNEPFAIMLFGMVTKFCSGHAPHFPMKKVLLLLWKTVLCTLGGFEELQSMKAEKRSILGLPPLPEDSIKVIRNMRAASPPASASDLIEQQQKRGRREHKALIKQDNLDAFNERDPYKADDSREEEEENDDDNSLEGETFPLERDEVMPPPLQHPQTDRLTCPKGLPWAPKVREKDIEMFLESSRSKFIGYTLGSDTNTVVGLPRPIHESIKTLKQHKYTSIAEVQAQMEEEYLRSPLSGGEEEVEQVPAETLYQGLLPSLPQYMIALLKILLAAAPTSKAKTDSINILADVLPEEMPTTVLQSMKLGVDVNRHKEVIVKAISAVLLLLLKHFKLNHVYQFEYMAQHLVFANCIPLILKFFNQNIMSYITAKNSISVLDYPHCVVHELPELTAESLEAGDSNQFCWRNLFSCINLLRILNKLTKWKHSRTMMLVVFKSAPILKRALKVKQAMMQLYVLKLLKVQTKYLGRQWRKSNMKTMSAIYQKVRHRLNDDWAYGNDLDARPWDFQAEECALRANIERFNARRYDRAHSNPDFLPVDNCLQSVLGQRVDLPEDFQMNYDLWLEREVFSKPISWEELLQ

Assay in all cases: co-IP
Experiment [1] concerns the target T1, MAP4K4 intermediate domain 1 (ID1, 290-634), 3xFLAG-tagged (human) (UniProt O95819).
T1 sequence: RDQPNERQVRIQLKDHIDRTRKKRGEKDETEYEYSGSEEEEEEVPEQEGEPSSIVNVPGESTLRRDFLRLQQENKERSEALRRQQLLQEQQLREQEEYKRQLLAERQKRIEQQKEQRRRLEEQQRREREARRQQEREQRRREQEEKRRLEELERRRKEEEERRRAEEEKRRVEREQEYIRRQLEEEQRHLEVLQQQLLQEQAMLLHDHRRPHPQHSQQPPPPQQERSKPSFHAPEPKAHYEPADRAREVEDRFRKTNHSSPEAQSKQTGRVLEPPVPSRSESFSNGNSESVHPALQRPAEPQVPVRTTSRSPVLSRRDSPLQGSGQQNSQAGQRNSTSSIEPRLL

The target of experiment [2] is T2, MAP4K4 intermediate domain 2 (ID2, 635-954), 3xFLAG-tagged (human) (UniProt O95819).
T2 sequence: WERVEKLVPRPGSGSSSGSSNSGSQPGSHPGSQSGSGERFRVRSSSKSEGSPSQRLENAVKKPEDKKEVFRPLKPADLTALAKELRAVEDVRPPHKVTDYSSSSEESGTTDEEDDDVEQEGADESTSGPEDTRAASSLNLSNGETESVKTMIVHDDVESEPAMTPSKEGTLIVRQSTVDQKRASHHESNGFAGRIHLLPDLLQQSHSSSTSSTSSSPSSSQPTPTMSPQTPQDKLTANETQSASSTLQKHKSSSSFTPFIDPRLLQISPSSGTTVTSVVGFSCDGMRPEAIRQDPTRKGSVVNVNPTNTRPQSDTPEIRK

Experiment [3] concerns the target T3, MAP4K4 kinase domain (KD, 1-289), 3xFLAG-tagged (human) (UniProt O95819).
T3 sequence: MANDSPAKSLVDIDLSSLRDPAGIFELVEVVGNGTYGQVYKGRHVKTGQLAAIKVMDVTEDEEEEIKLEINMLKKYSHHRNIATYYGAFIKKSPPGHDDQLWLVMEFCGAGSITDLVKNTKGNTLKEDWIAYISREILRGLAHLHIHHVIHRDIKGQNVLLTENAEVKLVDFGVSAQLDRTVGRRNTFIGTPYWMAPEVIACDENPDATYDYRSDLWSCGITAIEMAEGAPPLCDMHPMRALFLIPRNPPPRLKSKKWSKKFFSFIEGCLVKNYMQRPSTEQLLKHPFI

The target of experiment [4] is T1, MAP4K4 intermediate domain 1 (ID1, 290-634), 3xFLAG-tagged (human). The source holds these as a separate data set.
Experiment [5] concerns the target STRIP1 (human (endogenous in HEK-293T and DAOY)) (UniProt Q5VSL9).
In experiment [6] the target is T2, MAP4K4 intermediate domain 2 (ID2, 635-954), 3xFLAG-tagged (human). The source holds these as a separate data set.
Experiment [7] deals with T3, MAP4K4 kinase domain (KD, 1-289), 3xFLAG-tagged (human). This is another data set of the same source.
Experiment [8] addresses full-length MAP4K4-FLAG (3xFLAG-tagged) (human) (UniProt O95819).
Experiment [9] deals with 3xFLAG-BioID2-MAP4K4 (human) (UniProt O95819).
In experiment [10] the target is MAP4K4 (experiment of Figure S1G, with or without GNE-495) (human) (UniProt O95819).

Read-outs that look alike come from different tables or passages of the source. Results are given in words; binding and its absence hold for the method and conditions named. Binding seen in cells or lysates may run through a third protein. Some binding calls cover weakened binding; strength is not graded here. For some assays here: Tags and fused reporters may be left off the sequences shown.

With STRIP1 (from UniProt Q5VSL9 1-837), the binding result in experiment [1], in [2] and in experiment [3] was “no binding” each time.

B1: STRN4 (protein, UniProt Q9NRL3 1-753)
chain: MMEERAAAAVAAAASSCRPLGSGAGPGPTGAAPVSAPAPGPGPAGKGGGGGGSPGPTAGPEPLSLPGILHFIQHEWARFEAEKARWEAERAELQAQVAFLQGERKGQENLKTDLVRRIKMLEYALKQERAKYHKLKFGTDLNQGEKKADVSEQVSNGPVESVTLENSPLVWKEGRQLLRQYLEEVGYTDTILDMRSKRVRSLLGRSLELNGAVEPSEGAPRAPPGPAGLSGGESLLVKQIEEQIKRNAAGKDGKERLGGSVLGQIPFLQNCEDEDSDEDDELDSVQHKKQRVKLPSKALVPEMEDEDEEDDSEDAINEFDFLGSGEDGEGAPDPRRCTVDGSPHELESRRVKLQGILADLRDVDGLPPKVTGPPPGTPQPRPHEDVFIMDTIGGGEVSLGDLADLTVTNDNDLSCDLSDSKDAFKKTWNPKFTLRSHYDGIRSLAFHHSQSALLTASEDGTLKLWNLQKAVTAKKNAALDVEPIHAFRAHRGPVLAVAMGSNSEYCYSGGADACIHSWKIPDLSMDPYDGYDPSVLSHVLEGHGDAVWGLAFSPTSQRLASCSADGTVRIWDPSSSSPACLCTFPTASEHGVPTSVAFTSTEPAHIVASFRSGDTVLYDMEVGSALLTLESRGSSGPTQINQVVSHPNQPLTITAHDDRGIRFLDNRTGKPVHSMVAHLDAVTCLAVDPNGAFLMSGSHDCSLRLWSLDNKTCVQEITAHRKKHEEAIHAVACHPSKALIASAGADALAKVFV
B1: the binding result in experiment [4] is “no binding”; in experiment [5], “binds”; in experiment [6], “no binding”; in [7] it was “no binding”.

B2: STRN3 (protein, UniProt Q13033 1-797)
chain: MDELAGGGGGGPGMAAPPRQQQGPGGNLGLSPGGNGAAGGGGPPASEGAGPAAGPELSRPQQYTIPGILHYIQHEWARFEMERAHWEVERAELQARIAFLQGERKGQENLKKDLVRRIKMLEYALKQERAKYHKLKYGTELNQGDLKMPTFESEETKDTEAPTAPQNSQLTWKQGRQLLRQYLQEVGYTDTILDVRSQRVRSLLGLSNSEPNGSVETKNLEQILNGGESPKQKGQEIKRSSGDVLETFNFLENADDSDEDEENDMIEGIPEGKDKHRMNKHKIGNEGLAADLTDDPDTEEALKEFDFLVTAEDGEGAGEARSSGDGTEWDKDDLSPTAEVWDVDQGLISKLKEQYKKERKGKKGVKRANRTKLYDMIADLGDDELPHIPSGIINQSRSASTRMTDHEGARAEEAEPITFPSGGGKSFIMGSDDVLLSVLGLGDLADLTVTNDADYSYDLPANKDAFRKTWNPKYTLRSHFDGVRALAFHPVEPVLVTASEDHTLKLWNLQKTVPAKKSASLDVEPIYTFRAHIGPVLSLAISSNGEQCFSGGIDATIQWWNMPSPSVDPYDTYEPNVLAGTLVGHTDAVWGLAYSGIKNQLLSCSADGTVRLWNPQEKLPCICTYNGDKKHGIPTSVDFIGCDPAHMVTSFNTGSAVIYDLETSQSLVILSSQVDSGLQSNNHINRVVSHPTLPVTITAHEDRHIKFFDNKTGKMIHSMVAHLDAVTSLAVDPNGIYLMSGSHDCSIRLWNLDSKTCVQEITAHRKKLDESIYDVAFHSSKAYIASAGADALAKVFV
In the case of B2, the binding entry in experiment [5], in experiment [8], in experiment [9] and in experiment [10] was “binds” in each case.
